Reference: US12441768B2, “Compositions and methods for treating endometriosis” (EndoMet Biosciences, Inc., priority 2018, dated 2025)
Where a SMILES comes first, the peptide text is derived from it.

Test system: Wnt-responsive promoter (TCF/LEF)
Assay: Wnt-dependent luciferase reporter assay
Assay type: cell-based, murine
Experimental: The luciferase reporter assay is commonly used as a tool to study gene expression at the transcriptional level. Peptides from libraries described herein were characterized for ability to suppress transcription in cells with luciferase expression controlled by a Wnt-responsive promoter. Peptides were added to cells transfected with luciferase gene downstream of a Wnt-responsive promoter. Cells were stimulated with Wnt3a protein and incubated with peptides from libraries described herein. Luminescence was recorded to determine the peptides with the highest β-catenin-inhibiting activity. EC50 values were calculated based on the inhibition of luminescence and expressed as concentration (uM) in Table 5.
Peptides were assessed for their ability to inhibit Wnt signaling. Murine 3T3 fibroblasts that express luciferase under a Wnt-responsive promoter (TCF/LEF) (Enzo Life Sciences, Farmingdale, NY) were stimulated with Wnt3a in the presence of increasing concentrations of peptide inhibitor (Hit 1: SEQ ID NO:217, Hit 2: SEQ ID NO:224, Hit 3: SEQ ID NO:228, Hit 4: SEQ ID NO:227, Hit 5: SEQ ID NO:220, Hit 6: SEQ ID NO:168. Hit 7: SEQ ID NO:226) or with vehicle control (FIG. 2A).

CC[C@H](C)[C@@H]1NC(=O)[C@@H](NC(=O)[C@H](CCC(N)=O)NC(=O)[C@H](C)N(C)C(=O)[C@H](Cc2c[nH]c3ccccc23)NC(=O)CCC(=O)O)CCCCNC(=O)CC[C@@H](C(=O)N[C@@H](Cc2c[nH]cn2)C(=O)N[C@H](C(=O)N[C@@H](CCC(N)=O)C(=O)N[C@@H](CCCNC(=N)N)C(=O)N[C@H](C(=O)N[C@@H](Cc2c[nH]c3ccccc23)C(=O)NCC(N)=O)C(C)C)C2CCCCC2)NC(=O)[C@H](CC(=O)O)NC(=O)[C@H](CC(C)C)NC1=O [compound 405] (HELM PEPTIDE1{[O=C(O)CCC(=O)[*:2]].W.[meA].Q.K.I.L.D.E.H.[O=C([C@@H](N[*:1])C1CCCCC1)[*:2]].Q.R.V.W.G.[am]}$PEPTIDE1,PEPTIDE1,5:R3-9:R3$$$V2.0)
Wnt Reporter Hill Slope: 0.8

CC[C@H](C)[C@@H]1NC(=O)[C@@H](NC(=O)[C@H](CCC(N)=O)NC(=O)[C@@H]2CCCCN2C(=O)[C@H](Cc2c[nH]c3ccccc23)NC(C)=O)CCCCNC(=O)CC[C@@H](C(=O)N[C@@H](Cc2c[nH]cn2)C(=O)N[C@H](C(=O)N[C@@H](CCC(N)=O)C(=O)N[C@@H](CCCNC(=N)N)C(=O)N[C@H](C(=O)N[C@@H](Cc2c[nH]c3ccccc23)C(=O)NCC(N)=O)C(C)C)C2CCCCC2)NC(=O)[C@H](CC(=O)O)NC(=O)[C@H](CC(C)C)NC1=O [compound 442] (HELM PEPTIDE1{[ac].W.[O=C([C@@H]1CCCCN1[*:1])[*:2]].Q.K.I.L.D.E.H.[O=C([C@@H](N[*:1])C1CCCCC1)[*:2]].Q.R.V.W.G.[am]}$PEPTIDE1,PEPTIDE1,5:R3-9:R3$$$V2.0)
Wnt Reporter Hill Slope: 2

CC[C@H](C)[C@@H]1NC(=O)[C@@H](NC(=O)[C@H](CCC(N)=O)NC(=O)C(C)(C)NC(=O)[C@H](Cc2c[nH]c3ccccc23)NC(C)=O)CCCCNC(=O)CC[C@@H](C(=O)N[C@@H](Cc2c[nH]cn2)C(=O)N[C@H](C(=O)N[C@@H](CCC(N)=O)C(=O)N[C@@H](CCCNC(=N)N)C(=O)N[C@H](C(=O)N[C@@H](Cc2c[nH]c3ccccc23)C(=O)NCC(N)=O)C(C)C)C2CCCCC2)NC(=O)[C@H](CC(=O)O)NC(=O)[C@H](CC(C)C)NC1=O [compound 443] (HELM PEPTIDE1{[ac].W.[Aib].Q.K.I.L.D.E.H.[O=C([C@@H](N[*:1])C1CCCCC1)[*:2]].Q.R.V.W.G.[am]}$PEPTIDE1,PEPTIDE1,5:R3-9:R3$$$V2.0)
Wnt Reporter Hill Slope: 3

CC[C@H](C)[C@@H]1NC(=O)[C@@H](NC(=O)[C@H](CCC(N)=O)NC(=O)[C@H](C)N(C)C(=O)[C@H](Cc2c[nH]c3ccccc23)NC(C)=O)CCCCNC(=O)C[C@@H](C(=O)N[C@@H](Cc2c[nH]cn2)C(=O)N[C@H](C(=O)N[C@@H](CCC(N)=O)C(=O)N[C@@H](C)C(=O)N[C@H](C(N)=O)C(C)C)C2CCCCC2)NC(=O)[C@H](CC(N)=O)NC(=O)[C@H](CC(C)C)NC1=O [compound 452] (HELM PEPTIDE1{[ac].W.[meA].Q.K.I.L.N.D.H.[O=C([C@@H](N[*:1])C1CCCCC1)[*:2]].Q.A.V.[am]}$PEPTIDE1,PEPTIDE1,5:R3-9:R3$$$V2.0)
Wnt Reporter Hill Slope: 1

CCCCCCCCCCCC(=O)N[C@@H](Cc1c[nH]c2ccccc12)C(=O)N(C)[C@@H](C)C(=O)N[C@@H](CCC(N)=O)C(=O)N[C@H]1CCCCNC(=O)CC[C@@H](C(=O)N[C@@H](Cc2c[nH]cn2)C(=O)N[C@H](C(=O)N[C@H]2CCC(=O)NCCCC[C@@H](C(N)=O)NC(=O)[C@H](Cc3c[nH]c4ccccc34)NC(=O)[C@H](C(C)C)NC(=O)[C@H](CC(=O)O)NC2=O)C2CCCCC2)NC(=O)[C@H](CC(=O)O)NC(=O)[C@H](CC(C)C)NC(=O)[C@H]([C@@H](C)CC)NC1=O [compound 465] (HELM PEPTIDE1{[CCCCCCCCCCCC(=O)[*:2]].W.[meA].Q.K.I.L.D.E.H.[O=C([C@@H](N[*:1])C1CCCCC1)[*:2]].E.D.V.W.K.[am]}$PEPTIDE1,PEPTIDE1,5:R3-9:R3|PEPTIDE1,PEPTIDE1,12:R3-16:R3$$$V2.0; bridges inferred)
Wnt Reporter Hill Slope: 3

CC[C@H](C)[C@H](NC(=O)[C@H](CO)NC(=O)[C@H](CCC(N)=O)NC(=O)[C@@H]1CCCN1C(=O)[C@H](Cc1c[nH]c2ccccc12)NC(C)=O)C(=O)N[C@@H](CC(C)C)C(=O)N[C@@H](CC(=O)O)C(=O)N[C@H]1CCC(=O)NCCCC[C@@H](C(=O)N[C@H](C(=O)N[C@@H](Cc2c[nH]c3ccccc23)C(=O)NCC(N)=O)C(C)C)NC(=O)[C@H](CCC(N)=O)NC(=O)[C@H](C2CCCCC2)NC(=O)[C@H](Cc2c[nH]cn2)NC1=O [compound 472] (HELM PEPTIDE1{[ac].W.P.Q.S.I.L.D.E.H.[O=C([C@@H](N[*:1])C1CCCCC1)[*:2]].Q.K.V.W.G.[am]}$PEPTIDE1,PEPTIDE1,9:R3-13:R3$$$V2.0)
Wnt Reporter Hill Slope: 3

PQKILDEHVQRVMK [compound 485]
Wnt Reporter Hill Slope: 3

PQKILDEHVQRVMK [compound 486]
Wnt Reporter Hill Slope: 1.4

PQKILDEHVQRVMK [compound 487]
Wnt Reporter Hill Slope: 2.4
